The subject of the experiment is ACTH-induced aldosterone production in the adrenals of rats or mice. The experiment is described as follows: cells. The note with it: 2 h, read-out: IC50 of inhibition of ACTH-induced aldosterone production.

The values that follow come from patent US5057521A, “Use of bicyclic imidazole compounds for the treatment of hyperaldosteronism” (Ciba-Geigy Corporation, priority 1988, dated 1991).

The term IC50 denotes the concentration at which inhibition is half-maximal.

As for `N#Cc1ccc(C2CCCc3cncn32)cc1` (racemic) [5-(p-cyanophenyl)-5,6,7,8-tetrahydroimidazo[1,5-a]pyridine], the IC50 was 1000 nM.
